Assay results: the supplement of paper PMC10849652
This is one part of the list.

Protein sequences, listed by entry. Tags and fused reporters are not part of them. Lines headed by an entry give the natural chain unless they say otherwise; changes in a name come on top.
UniProt Q03111: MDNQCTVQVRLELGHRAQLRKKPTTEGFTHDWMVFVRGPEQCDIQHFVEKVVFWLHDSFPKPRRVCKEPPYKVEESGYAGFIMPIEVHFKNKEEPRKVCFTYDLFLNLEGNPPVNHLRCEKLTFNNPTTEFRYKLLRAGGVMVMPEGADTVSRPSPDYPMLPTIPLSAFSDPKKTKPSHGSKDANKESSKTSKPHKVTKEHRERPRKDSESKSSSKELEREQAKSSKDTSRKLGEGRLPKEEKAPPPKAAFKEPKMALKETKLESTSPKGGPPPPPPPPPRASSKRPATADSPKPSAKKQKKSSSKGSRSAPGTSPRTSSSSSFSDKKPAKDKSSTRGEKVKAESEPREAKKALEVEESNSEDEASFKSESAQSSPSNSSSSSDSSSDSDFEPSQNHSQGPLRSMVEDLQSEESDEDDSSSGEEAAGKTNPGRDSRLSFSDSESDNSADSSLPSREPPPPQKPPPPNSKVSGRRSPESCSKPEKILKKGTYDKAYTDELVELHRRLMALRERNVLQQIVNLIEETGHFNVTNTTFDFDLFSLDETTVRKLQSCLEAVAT
UniProt Q96EY8: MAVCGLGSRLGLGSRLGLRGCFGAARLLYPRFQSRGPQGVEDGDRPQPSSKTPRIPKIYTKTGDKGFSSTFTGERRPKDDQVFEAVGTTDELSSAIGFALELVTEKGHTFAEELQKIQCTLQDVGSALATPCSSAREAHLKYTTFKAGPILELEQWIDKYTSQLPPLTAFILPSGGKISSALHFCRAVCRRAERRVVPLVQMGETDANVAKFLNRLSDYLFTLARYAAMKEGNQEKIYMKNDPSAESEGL
UniProt Q567V2: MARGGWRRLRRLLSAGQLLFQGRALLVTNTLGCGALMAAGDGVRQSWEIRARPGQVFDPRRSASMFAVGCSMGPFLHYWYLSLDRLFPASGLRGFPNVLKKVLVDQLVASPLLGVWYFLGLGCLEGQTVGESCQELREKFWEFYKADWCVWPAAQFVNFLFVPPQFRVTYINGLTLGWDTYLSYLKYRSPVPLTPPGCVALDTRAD
UniProt Q96EN8: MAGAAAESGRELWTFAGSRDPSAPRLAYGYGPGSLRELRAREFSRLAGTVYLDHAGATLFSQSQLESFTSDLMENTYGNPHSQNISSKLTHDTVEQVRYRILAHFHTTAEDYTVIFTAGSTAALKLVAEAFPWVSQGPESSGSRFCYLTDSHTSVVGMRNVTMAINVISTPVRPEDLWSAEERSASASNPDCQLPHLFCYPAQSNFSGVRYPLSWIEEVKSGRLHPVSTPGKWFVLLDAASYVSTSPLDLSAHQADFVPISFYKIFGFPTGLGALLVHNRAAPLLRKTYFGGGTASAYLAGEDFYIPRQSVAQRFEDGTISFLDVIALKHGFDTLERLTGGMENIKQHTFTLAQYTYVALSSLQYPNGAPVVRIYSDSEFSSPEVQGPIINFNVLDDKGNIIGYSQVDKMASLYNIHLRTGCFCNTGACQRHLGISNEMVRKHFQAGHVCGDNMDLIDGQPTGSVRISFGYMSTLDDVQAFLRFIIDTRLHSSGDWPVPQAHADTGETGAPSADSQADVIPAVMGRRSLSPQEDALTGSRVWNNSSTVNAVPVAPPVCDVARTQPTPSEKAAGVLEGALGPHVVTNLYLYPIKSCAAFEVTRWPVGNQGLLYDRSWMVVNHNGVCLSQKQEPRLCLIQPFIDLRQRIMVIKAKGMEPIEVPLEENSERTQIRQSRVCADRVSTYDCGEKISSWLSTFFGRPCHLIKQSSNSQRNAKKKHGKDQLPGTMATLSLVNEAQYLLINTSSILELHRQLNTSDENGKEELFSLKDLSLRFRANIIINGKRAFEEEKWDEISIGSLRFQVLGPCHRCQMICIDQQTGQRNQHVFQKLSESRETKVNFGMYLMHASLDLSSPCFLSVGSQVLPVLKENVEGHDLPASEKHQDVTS
UniProt P25325: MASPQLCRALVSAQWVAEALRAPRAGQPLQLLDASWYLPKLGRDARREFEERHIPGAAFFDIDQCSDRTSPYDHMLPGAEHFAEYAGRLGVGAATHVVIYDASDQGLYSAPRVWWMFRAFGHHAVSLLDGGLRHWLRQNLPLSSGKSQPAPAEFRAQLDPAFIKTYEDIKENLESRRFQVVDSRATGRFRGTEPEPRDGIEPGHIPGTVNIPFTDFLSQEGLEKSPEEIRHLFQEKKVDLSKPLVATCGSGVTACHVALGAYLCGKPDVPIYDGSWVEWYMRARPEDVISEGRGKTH
UniProt P34949: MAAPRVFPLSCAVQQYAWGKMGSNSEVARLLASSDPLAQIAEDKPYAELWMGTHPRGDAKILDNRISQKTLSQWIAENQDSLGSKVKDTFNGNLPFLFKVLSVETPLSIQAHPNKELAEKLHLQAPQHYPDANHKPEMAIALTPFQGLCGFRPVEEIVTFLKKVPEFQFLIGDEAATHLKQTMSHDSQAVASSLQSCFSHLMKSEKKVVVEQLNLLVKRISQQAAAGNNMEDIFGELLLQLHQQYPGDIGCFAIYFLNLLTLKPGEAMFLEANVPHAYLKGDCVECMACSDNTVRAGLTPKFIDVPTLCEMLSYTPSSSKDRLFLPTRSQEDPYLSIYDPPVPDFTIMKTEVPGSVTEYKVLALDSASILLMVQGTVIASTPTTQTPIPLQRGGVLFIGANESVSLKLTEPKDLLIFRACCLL
UniProt O96007: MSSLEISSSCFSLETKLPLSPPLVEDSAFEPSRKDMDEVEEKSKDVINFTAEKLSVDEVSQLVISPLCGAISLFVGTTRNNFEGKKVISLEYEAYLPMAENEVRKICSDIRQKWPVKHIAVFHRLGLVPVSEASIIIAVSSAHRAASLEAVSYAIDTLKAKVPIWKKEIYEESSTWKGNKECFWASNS
UniProt Q7L9L4: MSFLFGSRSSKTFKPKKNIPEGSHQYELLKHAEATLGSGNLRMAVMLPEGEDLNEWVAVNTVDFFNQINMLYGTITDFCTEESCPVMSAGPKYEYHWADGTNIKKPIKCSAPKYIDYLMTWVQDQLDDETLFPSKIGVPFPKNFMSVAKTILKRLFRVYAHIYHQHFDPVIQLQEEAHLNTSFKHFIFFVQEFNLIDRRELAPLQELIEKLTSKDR
UniProt Q9NZW5: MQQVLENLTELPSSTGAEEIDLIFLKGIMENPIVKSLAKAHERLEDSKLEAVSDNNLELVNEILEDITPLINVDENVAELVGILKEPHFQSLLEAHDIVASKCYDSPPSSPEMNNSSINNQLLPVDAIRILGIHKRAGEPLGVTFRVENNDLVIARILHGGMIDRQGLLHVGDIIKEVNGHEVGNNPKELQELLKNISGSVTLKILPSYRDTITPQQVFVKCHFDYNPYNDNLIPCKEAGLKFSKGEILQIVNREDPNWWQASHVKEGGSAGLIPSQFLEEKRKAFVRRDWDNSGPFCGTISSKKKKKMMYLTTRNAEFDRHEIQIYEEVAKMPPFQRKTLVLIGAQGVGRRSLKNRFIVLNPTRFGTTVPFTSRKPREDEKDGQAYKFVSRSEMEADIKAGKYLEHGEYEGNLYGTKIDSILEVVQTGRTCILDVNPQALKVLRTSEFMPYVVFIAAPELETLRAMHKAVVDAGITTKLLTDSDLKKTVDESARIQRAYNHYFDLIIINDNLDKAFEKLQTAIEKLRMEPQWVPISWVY
UniProt Q9UNW1: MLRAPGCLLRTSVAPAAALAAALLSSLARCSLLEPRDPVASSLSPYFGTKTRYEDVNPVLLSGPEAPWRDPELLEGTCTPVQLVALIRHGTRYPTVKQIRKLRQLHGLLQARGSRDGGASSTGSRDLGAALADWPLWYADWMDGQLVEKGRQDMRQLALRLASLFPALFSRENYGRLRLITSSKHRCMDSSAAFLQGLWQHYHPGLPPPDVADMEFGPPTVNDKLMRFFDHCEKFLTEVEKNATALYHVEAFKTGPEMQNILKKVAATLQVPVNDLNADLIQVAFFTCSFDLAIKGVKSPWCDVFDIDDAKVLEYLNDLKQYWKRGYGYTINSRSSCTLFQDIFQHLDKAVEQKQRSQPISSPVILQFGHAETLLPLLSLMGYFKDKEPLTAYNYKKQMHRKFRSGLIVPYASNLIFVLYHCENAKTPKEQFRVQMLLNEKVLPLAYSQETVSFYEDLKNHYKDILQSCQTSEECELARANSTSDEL
UniProt Q7RTP6, whole entry, looked up: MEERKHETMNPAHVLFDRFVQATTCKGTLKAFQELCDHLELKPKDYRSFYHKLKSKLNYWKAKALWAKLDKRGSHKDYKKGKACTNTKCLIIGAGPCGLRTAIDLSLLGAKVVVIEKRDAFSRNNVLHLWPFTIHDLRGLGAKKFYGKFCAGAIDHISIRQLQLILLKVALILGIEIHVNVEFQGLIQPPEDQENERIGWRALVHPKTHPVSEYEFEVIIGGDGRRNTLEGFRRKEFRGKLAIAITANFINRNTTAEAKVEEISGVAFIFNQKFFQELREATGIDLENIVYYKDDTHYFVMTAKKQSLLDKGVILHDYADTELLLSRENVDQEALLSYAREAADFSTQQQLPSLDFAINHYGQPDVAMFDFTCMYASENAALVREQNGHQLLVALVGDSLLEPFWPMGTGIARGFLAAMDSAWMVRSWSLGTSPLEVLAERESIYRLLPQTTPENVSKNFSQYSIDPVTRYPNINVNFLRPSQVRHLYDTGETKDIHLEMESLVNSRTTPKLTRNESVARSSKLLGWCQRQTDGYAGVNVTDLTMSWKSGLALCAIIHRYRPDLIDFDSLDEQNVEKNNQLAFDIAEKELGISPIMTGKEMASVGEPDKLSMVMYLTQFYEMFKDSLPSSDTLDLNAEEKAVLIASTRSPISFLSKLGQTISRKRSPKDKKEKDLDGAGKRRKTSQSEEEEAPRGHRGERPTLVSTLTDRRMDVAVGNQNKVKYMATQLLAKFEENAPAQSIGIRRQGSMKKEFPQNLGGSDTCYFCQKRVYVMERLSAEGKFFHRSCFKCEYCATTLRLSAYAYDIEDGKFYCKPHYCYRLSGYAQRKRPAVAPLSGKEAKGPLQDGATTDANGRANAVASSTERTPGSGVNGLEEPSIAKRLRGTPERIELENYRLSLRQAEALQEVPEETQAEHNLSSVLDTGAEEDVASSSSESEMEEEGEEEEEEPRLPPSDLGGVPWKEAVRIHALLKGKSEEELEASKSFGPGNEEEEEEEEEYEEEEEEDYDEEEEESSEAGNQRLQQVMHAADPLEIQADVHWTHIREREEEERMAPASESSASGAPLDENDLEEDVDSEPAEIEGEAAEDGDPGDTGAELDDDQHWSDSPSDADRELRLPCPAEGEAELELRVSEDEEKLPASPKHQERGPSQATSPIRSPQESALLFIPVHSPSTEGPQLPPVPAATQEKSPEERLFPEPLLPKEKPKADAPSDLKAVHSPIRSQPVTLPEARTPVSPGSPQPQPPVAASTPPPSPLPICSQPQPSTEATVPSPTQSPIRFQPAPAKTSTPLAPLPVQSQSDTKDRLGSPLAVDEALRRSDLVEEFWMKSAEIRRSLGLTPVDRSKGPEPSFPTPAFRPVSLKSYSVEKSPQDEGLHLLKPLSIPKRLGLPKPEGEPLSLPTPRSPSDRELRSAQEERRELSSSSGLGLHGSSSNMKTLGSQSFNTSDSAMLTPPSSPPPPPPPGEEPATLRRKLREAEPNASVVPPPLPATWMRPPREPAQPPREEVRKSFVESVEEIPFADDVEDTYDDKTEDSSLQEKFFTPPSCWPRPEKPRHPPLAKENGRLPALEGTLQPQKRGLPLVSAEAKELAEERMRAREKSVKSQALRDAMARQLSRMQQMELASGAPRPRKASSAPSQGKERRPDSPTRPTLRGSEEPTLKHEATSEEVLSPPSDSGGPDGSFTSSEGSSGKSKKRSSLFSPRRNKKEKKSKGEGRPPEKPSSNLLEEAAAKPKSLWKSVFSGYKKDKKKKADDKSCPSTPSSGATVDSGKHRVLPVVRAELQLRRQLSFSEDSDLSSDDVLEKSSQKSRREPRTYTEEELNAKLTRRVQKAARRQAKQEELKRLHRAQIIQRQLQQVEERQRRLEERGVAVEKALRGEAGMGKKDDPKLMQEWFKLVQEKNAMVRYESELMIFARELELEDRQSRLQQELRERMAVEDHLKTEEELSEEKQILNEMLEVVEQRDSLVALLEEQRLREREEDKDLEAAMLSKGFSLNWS
UniProt O95563: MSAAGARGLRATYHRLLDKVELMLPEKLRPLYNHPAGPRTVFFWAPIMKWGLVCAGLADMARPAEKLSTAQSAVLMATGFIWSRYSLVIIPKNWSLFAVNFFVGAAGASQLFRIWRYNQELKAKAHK
UniProt A9UHW6: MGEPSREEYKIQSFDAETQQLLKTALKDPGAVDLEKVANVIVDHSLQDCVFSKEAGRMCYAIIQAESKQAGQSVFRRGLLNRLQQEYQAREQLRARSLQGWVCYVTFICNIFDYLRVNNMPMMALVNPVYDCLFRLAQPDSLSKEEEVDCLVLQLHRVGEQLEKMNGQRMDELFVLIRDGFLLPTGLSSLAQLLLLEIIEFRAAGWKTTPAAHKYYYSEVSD
UniProt Q8TAP9: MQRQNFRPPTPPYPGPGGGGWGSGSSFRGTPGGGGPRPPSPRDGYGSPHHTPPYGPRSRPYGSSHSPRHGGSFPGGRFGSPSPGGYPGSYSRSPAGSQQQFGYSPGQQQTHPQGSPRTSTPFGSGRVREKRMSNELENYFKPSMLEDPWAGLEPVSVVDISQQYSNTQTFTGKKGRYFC

Columns and labels:
Test in all cases: log2 fold change, soluble protein after heating vs DMSO (PISA); higher = thermal stabilisation; K562 cells, 10 uM, 30 min; active = over 0.2 and 3.5 SD of the protein, either way, in both replicates (recomputed)
[1] = compound: CC[C@@H]1C(=O)N(C)c2cnc(Nc3ccc(C(=O)NC4CCN(C)CC4)cc3OC)nc2N1C1CCCC1
Outline: (§1)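 Quantification of soluble protein used TMTpro 16plex LC-MS/MS, with channel sums equalised. Samples were the supernatant after 21,000xg for 90 min of pooled aliquots from K562 cells (2×10^6 cells/mL) treated with 10 μM compound for 30 min, heated for 3 min over 48°C-58°C, and extracted in PBS with 0.5% NP-40 at 4°C. Values, from duplicates, describe thermal stability against control samples on a log2 fold-change scale.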

volasertib = compound: CC[C@@H]1C(=O)N(C)c2cnc(Nc3ccc(C(=O)N[C@H]4CC[C@H](N5CCN(CC6CC6)CC5)CC4)cc3OC)nc2N1C(C)C [volasertib]
Outline: as §1

[2] = compound: CC[C@H](C)N1C=C(C2=C(C=C(C=C21)C3=CN=C(C=C3)N4CCNCC4)C(=O)NCC5=C(C=C(NC5=O)C)C)C
Outline: as §1

epoxomicin = compound: CC[C@H](C)[C@@H](C(=O)N[C@@H]([C@@H](C)O)C(=O)N[C@@H](CC(C)C)C(=O)[C@]1(CO1)C)NC(=O)[C@H]([C@@H](C)CC)N(C)C(=O)C [epoxomicin]
Outline: as §1

[3] = compound: CCn1c(C(=O)N(C2CC2)C2CC2)cc2c3c(ncn3C)c(Nc3cc(C)n(C)n3)nc21
Outline: as §1

[4] = compound: CCn1cc(-c2ccnc3[nH]c(-c4cccc(CN(C)C)c4)cc23)c(-c2ccc(NC(=O)N(C)C)cc2)n1
Outline: as §1

[5] = compound: CN(C)CC(=O)Nc1ccc2[nH]c(=O)c3ccccc3c2c1
Outline: as §1

rosiglitazone = compound: CN(CCOC1=CC=C(C=C1)C[C@H]2C(=O)NC(=O)S2)C3=CC=CC=N3 (racemic) [rosiglitazone]
Outline: as §1

[6] = compound: CN1C2=C(C3=C1C(=O)N(N=C3)CC4=CC(=CC=C4)N)SC(=C2)S(=O)C
Outline: as §1

[7] = compound: CN1CCC(CNc2ccc3ncc(-c4cccc(OC(F)(F)F)c4)n3n2)CC1
Outline: as §1

Measured: log2 fold change

MLLT1 (UniProt Q03111)
inactive: [1] -0.003 | volasertib -0.034 | [2] -0.172 | epoxomicin -0.044 | [3] 0.028 | [4] -0.03 | [5] -0.057 | rosiglitazone -0.058 | [6] -0.039 | [7] -0.023

MMAB (UniProt Q96EY8)
inactive: [1] 0.037 | volasertib -0.025 | [2] -0.035 | epoxomicin -0.035 | [3] -0.006 | [4] 0.03 | [5] -0.025 | rosiglitazone 0.005 | [6] -0.037 | [7] -0.011

MIS18A (UniProt Q9NYP9)
inactive: [1] -0.014 | volasertib -0.068 | [2] 0.043 | epoxomicin 0.004 | [3] 0.013 | [4] -0.009 | [5] 0.051 | rosiglitazone 0.017 | [6] -0.058 | [7] -0.022

MRPL48 (UniProt Q96GC5)
inactive: [1] 0.068 | volasertib 0.255 | [2] 0.205 | epoxomicin -0.106 | [3] -0.064 | [4] -0.068 | [5] 0.002 | rosiglitazone -0.064 | [6] -0.01 | [7] 0.122

MPV17L2 (UniProt Q567V2)
inactive: [1] 0.083 | volasertib 0.118 | [2] -0.008 | epoxomicin 0 | [3] 0.073 | [4] 0.04 | [5] 0.032 | rosiglitazone -0.036 | [6] -0.053 | [7] 0.056

MOCOS (UniProt Q96EN8)
inactive: [1] 0.009 | volasertib 0.003 | [2] 0.01 | epoxomicin -0.058 | [3] 0.008 | [4] -0.041 | [5] -0.023 | rosiglitazone 0 | [6] -0.062 | [7] 0.009

MPST isoform 2 (UniProt P25325)
inactive: [1] 0.017 | volasertib -0.118 | [2] -0.005 | epoxomicin 0.012 | [3] -0.018 | [4] 0.028 | [5] 0.021 | rosiglitazone 0.019 | [6] -0.061 | [7] 0.014

MRPL43 isoform 4 (UniProt Q8N983)
inactive: [1] 0.096 | volasertib 0.186 | [2] -0.051 | epoxomicin -0.061 | [3] 0.015 | [4] 0.108 | [5] -0.013 | rosiglitazone -0.036 | [6] 0.174 | [7] 0.108

MPI (UniProt P34949)
inactive: [1] -0.033 | volasertib -0.164 | [2] 0.035 | epoxomicin 0 | [3] -0.051 | [4] -0.013 | [5] -0.001 | rosiglitazone 0.04 | [6] -0.077 | [7] -0.134

MRPL21 (UniProt Q7Z2W9)
inactive: [1] 0.026 | volasertib 0.211 | [2] 0.07 | epoxomicin -0.027 | [3] -0.035 | [4] -0.182 | [5] -0.028 | rosiglitazone -0.047 | [6] 0.155 | [7] 0.075

MRPL17 (UniProt Q9NRX2)
inactive: [1] 0.062 | volasertib 0.255 | [2] 0.024 | epoxomicin -0.045 | [3] 0.009 | [4] 0.035 | [5] -0.044 | rosiglitazone -0.013 | [6] 0.155 | [7] 0.052

MPG (UniProt P29372)
inactive: [1] 0.062 | volasertib 0.068 | [2] 0.037 | epoxomicin -0.068 | [3] 0.034 | [4] -0.052 | [5] -0.068 | rosiglitazone 0.022 | [6] 0.022 | [7] -0.002

MOCS2 (UniProt O96007)
inactive: [1] 0.057 | volasertib -0.056 | [2] -0.048 | epoxomicin 0.018 | [3] 0.026 | [4] -0.001 | [5] 0.019 | rosiglitazone 0.001 | [6] -0.034 | [7] -0.029

MOB1B isoform 2 (UniProt Q7L9L4)
inactive: [1] -0.03 | volasertib -0.044 | [2] 0.002 | epoxomicin 0.033 | [3] -0.016 | [4] 0.006 | [5] -0.01 | rosiglitazone 0.037 | [6] -0.098 | [7] -0.091

MPP6 (UniProt Q9NZW5)
inactive: [1] 0.015 | volasertib -0.074 | [2] 0.049 | epoxomicin 0.013 | [3] -0.018 | [4] -0.022 | [5] 0.023 | rosiglitazone 0.022 | [6] -0.043 | [7] -0.035

Reprinted at random: 2 records from the list
MRPL43 isoform 4 (UniProt Q8N983)
inactive: [1] 0.096 | volasertib 0.186 | [2] -0.051 | epoxomicin -0.061 | [3] 0.015 | [4] 0.108 | [5] -0.013 | rosiglitazone -0.036 | [6] 0.174 | [7] 0.108

MRPL48 (UniProt Q96GC5)
inactive: [1] 0.068 | volasertib 0.255 | [2] 0.205 | epoxomicin -0.106 | [3] -0.064 | [4] -0.068 | [5] 0.002 | rosiglitazone -0.064 | [6] -0.01 | [7] 0.122

Next part

MRPL19 (UniProt P49406)
inactive: [1] 0.06 | volasertib 0.107 | [2] 0.005 | epoxomicin 0.011 | [3] 0.004 | [4] -0.061 | [5] -0.046 | rosiglitazone 0.011 | [6] 0.03 | [7] 0.11

MINPP1 (UniProt Q9UNW1)
inactive: [1] 0.014 | volasertib 0.006 | [2] 0.074 | epoxomicin 0.04 | [3] 0.042 | [4] 0.02 | [5] -0.002 | rosiglitazone -0.018 | [6] -0.001 | [7] 0.07

MRPL39 (UniProt Q9NYK5)
inactive: [1] 0.071 | volasertib 0.057 | [2] 0.014 | epoxomicin -0.025 | [3] 0.033 | [4] -0.032 | [5] -0.033 | rosiglitazone -0.018 | [6] 0.031 | [7] 0.015

MRPL37 (UniProt Q9BZE1)
inactive: [1] 0.023 | volasertib 0.163 | [2] 0.07 | epoxomicin -0.006 | [3] 0.011 | [4] -0.082 | [5] -0.032 | rosiglitazone -0.029 | [6] 0.063 | [7] -0.04

MICAL3 (UniProt Q7RTP6)
inactive: [1] 0.036 | volasertib -0.103 | [2] 0.017 | epoxomicin -0.017 | [3] -0.054 | [4] -0.011 | [5] 0.027 | rosiglitazone 0.106 | [6] -0.007 | [7] -0.102

MRPL38 (UniProt Q96DV4)
inactive: [1] 0.138 | volasertib 0.234 | [2] 0.114 | epoxomicin -0.108 | [3] -0.046 | [4] -0.038 | [5] -0.018 | rosiglitazone -0.003 | [6] 0.091 | [7] 0.091

MPC2 (UniProt O95563)
inactive: [1] 0.07 | volasertib 0.056 | [2] -0.044 | epoxomicin -0.031 | [3] -0.004 | [4] -0.02 | [5] -0.007 | rosiglitazone 0.025 | [6] -0.057 | [7] 0.118

MIF4GD isoform 3 (UniProt A9UHW6)
inactive: [1] 0.057 | volasertib 0.049 | [2] -0.023 | epoxomicin 0.076 | [3] -0.015 | [4] 0.018 | [5] 0.013 | rosiglitazone 0.027 | [6] -0.06 | [7] 0.033

MRPL41 (UniProt Q8IXM3)
inactive: [1] 0.037 | volasertib 0.214 | [2] 0.042 | epoxomicin -0.046 | [3] -0.09 | [4] -0.021 | [5] 0.008 | rosiglitazone 0.009 | [6] 0.11 | [7] 0.083

MRPL49 (UniProt Q13405)
inactive: [1] 0.07 | volasertib 0.092 | [2] 0.014 | epoxomicin 0.018 | [3] -0.044 | [4] 0.033 | [5] -0.128 | rosiglitazone 0.004 | [6] 0.094 | [7] 0.145

MRPL53 (UniProt Q96EL3)
inactive: [1] 0.108 | volasertib 0.243 | [2] 0 | epoxomicin 0.096 | [3] 0 | [4] 0.113 | [5] -0.017 | rosiglitazone -0.071 | [6] 0.028 | [7] 0.203

MPLKIP (UniProt Q8TAP9)
inactive: [1] 0.042 | volasertib 0.122 | [2] -0.077 | epoxomicin -0.037 | [3] -0.021 | [4] -0.021 | [5] 0.015 | rosiglitazone -0.026 | [6] 0.001 | [7] -0.021

MRPL20 (UniProt Q9BYC9)
inactive: [1] 0.059 | volasertib 0.112 | [2] 0.005 | epoxomicin -0.058 | [3] 0.02 | [4] -0.024 | [5] -0.029 | rosiglitazone -0.06 | [6] 0.202 | [7] 0.204

MRPL13 (UniProt Q9BYD1)
inactive: [1] -0.009 | volasertib 0.18 | [2] 0.062 | epoxomicin 0.034 | [3] -0.047 | [4] -0.027 | [5] -0.001 | rosiglitazone 0.03 | [6] 0.013 | [7] 0.094
